Reference: patent US20260275281A1, “COMPOSITIONS AND METHODS FOR DIFFERENTIATING RPE CELLS” (STEMCELL TECHNOLOGIES CANADA INC., priority 2023, published 2026)
Some results were stated once for a whole list of compounds, not compound by compound.

Tested on: 3A and H9 cell lines
Test: Effect of different BMP inhibitors in the first culture medium on RPE differentiation efficiency (flow cytometry for PMEL17, day 14 immature RPE)
Assay type: cell-based, Human
Conditions: consistent between 3A and H9 lines

Row | SMILES | RPE differentiation efficiency (PMEL17 positive day 14 immature RPE) (25 nM or 100 nM LDN-193189 in first culture medium) [%] | RPE differentiation efficiency (PMEL17 positive day 14 immature RPE) (0.625 µM or 1.25 μM dorsomorphin in first culture medium) [%]
1 | Cl.Cl.c1ccc2c(-c3cnn4cc(-c5ccc(N6CCNCC6)cc5)cnc34)ccnc2c1 [LDN-193189, 4-[6-[4-(1-piperazinyl)phenyl]pyrazolo[1,5-a]pyrimidin-3-yl]-quinoline dihydrochloride] | > 80 | 
2 | c1cc(-c2cnn3cc(-c4ccc(OCCN5CCCCC5)cc4)cnc23)ccn1 [dorsomorphin, 6-[4-[2-(1-piperidinyl)ethoxy]phenyl]-3-(4-pyridinyl)-pyrazolo[1,5-a]pyrimidine] |  | > 80
